Data as given in the supplement of paper PMC10849652.
The list shows a part of the results.

Amino acid sequences for entries named in this document (tags omitted). A change or cut given only in a name is not applied to a line headed by its entry.
UniProt O95147: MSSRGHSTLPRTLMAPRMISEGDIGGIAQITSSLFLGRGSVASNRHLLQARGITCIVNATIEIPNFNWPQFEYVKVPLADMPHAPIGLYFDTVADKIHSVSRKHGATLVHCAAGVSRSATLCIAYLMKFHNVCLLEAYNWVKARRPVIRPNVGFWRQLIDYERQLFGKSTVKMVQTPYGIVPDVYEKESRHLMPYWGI
UniProt Q6NUT2: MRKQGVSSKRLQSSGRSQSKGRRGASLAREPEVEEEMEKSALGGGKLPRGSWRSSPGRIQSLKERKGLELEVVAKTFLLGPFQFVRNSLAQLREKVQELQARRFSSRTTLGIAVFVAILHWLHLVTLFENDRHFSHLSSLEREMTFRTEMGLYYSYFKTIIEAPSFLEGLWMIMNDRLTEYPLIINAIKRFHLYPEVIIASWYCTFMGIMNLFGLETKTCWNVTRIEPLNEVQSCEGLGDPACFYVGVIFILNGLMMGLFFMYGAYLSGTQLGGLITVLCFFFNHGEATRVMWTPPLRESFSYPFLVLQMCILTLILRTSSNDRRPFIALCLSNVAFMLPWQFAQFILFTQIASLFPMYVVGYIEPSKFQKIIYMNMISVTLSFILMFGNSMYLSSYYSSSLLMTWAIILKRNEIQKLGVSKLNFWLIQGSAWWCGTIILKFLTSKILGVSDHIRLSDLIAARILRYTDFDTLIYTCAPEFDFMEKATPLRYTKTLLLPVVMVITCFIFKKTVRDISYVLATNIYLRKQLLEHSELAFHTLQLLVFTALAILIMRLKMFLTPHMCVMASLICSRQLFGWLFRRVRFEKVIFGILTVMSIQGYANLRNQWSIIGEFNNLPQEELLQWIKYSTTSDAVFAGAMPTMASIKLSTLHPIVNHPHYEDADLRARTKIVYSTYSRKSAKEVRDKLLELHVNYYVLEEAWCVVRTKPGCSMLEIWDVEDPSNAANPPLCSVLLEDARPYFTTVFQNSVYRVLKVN
UniProt Q86YN1: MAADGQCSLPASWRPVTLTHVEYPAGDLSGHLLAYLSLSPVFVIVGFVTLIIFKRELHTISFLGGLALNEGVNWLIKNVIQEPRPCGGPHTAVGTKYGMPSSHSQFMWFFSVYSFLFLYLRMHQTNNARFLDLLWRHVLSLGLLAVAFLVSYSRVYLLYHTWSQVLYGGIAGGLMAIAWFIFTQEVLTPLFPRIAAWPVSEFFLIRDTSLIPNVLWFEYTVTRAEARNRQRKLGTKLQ
UniProt Q05193: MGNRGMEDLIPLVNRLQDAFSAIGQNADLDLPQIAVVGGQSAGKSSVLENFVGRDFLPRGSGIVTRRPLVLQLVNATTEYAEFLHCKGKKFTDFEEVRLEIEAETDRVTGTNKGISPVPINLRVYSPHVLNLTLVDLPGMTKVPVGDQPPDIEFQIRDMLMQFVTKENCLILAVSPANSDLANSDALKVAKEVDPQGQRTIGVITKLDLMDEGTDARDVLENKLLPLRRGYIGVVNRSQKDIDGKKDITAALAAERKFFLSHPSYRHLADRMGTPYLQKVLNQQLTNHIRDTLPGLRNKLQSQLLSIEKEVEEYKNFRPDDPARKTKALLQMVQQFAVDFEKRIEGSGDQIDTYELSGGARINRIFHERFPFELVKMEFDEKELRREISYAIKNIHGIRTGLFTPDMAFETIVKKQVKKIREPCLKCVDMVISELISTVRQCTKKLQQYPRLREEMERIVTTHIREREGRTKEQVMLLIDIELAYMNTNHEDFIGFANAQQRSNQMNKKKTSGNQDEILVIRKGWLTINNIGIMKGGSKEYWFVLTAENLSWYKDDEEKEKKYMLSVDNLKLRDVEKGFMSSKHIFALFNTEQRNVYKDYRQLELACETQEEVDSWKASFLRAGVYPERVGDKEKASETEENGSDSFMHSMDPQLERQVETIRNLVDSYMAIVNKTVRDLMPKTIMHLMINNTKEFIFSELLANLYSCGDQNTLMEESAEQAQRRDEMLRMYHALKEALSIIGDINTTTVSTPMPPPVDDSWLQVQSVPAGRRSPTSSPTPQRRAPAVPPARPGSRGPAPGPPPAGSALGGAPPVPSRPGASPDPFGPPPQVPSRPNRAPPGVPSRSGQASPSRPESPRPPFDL
UniProt Q5JWR5: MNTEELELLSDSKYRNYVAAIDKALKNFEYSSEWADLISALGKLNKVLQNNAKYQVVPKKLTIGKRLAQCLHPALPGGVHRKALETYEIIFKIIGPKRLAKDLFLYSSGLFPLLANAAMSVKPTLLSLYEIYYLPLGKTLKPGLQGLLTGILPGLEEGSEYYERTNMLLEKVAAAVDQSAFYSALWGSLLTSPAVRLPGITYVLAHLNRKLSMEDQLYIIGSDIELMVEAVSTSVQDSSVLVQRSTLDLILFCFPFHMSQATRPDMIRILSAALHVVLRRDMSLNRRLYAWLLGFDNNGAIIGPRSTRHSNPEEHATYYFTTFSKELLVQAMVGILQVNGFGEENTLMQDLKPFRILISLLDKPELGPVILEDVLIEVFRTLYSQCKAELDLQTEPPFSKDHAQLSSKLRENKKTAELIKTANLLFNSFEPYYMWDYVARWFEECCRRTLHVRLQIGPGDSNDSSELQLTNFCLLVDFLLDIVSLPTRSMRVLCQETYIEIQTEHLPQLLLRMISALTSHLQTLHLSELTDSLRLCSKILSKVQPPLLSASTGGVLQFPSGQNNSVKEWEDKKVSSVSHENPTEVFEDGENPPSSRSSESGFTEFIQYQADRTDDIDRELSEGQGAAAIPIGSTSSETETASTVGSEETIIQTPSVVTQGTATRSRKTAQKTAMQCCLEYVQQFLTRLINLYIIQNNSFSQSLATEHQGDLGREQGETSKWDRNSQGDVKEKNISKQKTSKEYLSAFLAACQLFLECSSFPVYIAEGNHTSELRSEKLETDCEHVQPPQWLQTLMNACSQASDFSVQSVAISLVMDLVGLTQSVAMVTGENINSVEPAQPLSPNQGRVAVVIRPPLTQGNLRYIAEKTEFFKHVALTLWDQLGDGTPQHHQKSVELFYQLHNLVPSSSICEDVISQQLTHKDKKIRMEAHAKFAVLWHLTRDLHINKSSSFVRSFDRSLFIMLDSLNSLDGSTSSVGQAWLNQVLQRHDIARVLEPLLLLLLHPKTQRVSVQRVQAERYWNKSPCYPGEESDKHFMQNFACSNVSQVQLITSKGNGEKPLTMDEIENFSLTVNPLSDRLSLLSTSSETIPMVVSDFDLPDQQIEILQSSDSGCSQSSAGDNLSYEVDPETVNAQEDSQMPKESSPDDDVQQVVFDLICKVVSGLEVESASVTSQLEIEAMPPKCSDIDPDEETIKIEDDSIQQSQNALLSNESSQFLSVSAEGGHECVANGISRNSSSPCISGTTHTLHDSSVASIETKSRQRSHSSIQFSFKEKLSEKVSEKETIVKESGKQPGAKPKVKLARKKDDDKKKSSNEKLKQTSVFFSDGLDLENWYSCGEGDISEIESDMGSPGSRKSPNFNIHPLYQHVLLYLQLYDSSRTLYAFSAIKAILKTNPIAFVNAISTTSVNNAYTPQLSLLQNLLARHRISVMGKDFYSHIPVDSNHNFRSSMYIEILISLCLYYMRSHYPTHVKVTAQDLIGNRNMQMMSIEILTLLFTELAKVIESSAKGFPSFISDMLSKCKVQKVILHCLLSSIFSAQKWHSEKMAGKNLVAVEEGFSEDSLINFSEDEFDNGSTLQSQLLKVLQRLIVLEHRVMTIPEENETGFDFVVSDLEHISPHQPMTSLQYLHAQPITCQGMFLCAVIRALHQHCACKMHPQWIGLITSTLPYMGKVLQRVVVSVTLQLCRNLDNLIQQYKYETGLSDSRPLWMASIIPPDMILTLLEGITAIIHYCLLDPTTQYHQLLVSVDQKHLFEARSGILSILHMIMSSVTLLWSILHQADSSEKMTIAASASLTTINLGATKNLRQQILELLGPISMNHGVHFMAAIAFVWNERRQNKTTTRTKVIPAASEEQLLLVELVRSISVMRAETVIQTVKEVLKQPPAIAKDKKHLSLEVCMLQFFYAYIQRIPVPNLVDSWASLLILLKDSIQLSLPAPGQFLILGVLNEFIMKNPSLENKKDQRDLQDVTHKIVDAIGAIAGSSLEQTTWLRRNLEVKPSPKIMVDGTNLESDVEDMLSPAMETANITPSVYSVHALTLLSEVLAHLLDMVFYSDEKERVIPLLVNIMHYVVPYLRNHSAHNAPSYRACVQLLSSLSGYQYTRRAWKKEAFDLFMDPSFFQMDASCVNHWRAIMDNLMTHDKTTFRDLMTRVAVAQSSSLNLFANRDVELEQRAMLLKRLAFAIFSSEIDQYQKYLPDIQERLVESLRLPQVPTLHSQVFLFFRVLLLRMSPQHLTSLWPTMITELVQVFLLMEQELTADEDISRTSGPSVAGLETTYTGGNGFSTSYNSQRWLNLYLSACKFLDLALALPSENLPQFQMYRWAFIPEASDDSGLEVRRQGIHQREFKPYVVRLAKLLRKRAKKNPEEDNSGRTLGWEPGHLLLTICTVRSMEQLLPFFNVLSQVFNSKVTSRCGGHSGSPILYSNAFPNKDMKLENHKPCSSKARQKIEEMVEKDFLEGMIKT
UniProt Q4LDG9: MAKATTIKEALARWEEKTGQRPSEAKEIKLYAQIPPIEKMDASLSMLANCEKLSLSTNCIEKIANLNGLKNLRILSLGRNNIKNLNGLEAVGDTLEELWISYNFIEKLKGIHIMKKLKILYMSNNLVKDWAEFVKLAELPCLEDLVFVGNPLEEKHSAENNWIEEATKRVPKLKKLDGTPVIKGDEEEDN
UniProt Q9Y5T4: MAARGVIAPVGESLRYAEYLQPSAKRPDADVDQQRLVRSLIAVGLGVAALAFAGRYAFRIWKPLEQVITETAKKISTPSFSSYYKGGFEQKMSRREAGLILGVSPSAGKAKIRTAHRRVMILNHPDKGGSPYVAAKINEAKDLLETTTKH
UniProt P50570: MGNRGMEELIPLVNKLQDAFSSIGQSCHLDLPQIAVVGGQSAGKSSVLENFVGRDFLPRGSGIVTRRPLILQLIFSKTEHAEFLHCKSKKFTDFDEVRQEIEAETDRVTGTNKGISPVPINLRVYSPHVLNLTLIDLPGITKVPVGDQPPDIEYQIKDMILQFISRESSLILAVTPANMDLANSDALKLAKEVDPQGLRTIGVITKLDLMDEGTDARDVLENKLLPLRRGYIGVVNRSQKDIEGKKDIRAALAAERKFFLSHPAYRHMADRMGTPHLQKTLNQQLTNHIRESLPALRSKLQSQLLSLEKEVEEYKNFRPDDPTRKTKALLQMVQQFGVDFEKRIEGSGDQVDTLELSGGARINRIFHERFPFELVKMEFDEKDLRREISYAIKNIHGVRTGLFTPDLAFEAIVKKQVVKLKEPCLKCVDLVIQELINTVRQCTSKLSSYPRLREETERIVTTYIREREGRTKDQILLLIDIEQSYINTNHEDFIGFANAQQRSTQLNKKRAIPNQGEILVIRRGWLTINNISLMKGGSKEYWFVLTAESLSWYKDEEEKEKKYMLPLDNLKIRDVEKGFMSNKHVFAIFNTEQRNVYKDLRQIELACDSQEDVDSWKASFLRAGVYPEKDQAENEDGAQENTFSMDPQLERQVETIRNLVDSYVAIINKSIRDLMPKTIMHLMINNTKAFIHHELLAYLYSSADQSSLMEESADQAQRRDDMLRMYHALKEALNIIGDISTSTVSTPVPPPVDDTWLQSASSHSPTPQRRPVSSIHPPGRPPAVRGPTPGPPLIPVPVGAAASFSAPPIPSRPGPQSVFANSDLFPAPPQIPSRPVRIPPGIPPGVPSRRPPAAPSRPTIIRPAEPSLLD
UniProt Q6P1R4: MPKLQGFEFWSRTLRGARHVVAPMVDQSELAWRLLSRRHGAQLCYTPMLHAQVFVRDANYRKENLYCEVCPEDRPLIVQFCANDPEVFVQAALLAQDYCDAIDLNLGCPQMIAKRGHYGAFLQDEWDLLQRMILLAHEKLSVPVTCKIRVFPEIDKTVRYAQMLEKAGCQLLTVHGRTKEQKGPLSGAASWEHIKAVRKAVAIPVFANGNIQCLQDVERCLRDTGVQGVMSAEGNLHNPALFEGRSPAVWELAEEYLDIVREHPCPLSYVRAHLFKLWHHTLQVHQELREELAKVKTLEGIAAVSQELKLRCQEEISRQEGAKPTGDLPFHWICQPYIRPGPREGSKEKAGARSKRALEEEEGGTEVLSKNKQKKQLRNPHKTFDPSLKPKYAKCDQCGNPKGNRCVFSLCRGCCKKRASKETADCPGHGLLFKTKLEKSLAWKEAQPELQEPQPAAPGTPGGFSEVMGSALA
UniProt Q9UBS3: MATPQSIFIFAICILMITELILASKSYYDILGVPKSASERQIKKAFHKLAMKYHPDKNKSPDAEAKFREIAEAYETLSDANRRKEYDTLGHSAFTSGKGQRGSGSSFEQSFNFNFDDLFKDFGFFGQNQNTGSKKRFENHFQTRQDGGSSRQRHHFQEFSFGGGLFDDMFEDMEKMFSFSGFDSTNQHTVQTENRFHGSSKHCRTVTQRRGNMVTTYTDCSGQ

What follows are targets tested with NCC(=O)Nc1ccc(-n2nc(C(F)(F)F)cc2-c2ccc3c(ccc4ccccc43)c2)cc1 (assay: log2 fold change, soluble protein after heating vs DMSO (PISA); higher = thermal stabilisation; K562 cells, 10 uM, 30 min; active = over 0.2 and 3.5 SD of the protein, either way, in both replicates (recomputed)).
Procedure, shortened: (§1)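 K562 cells at 2×10^6 cells/mL were given 10 μM compound for 30 min. Aliquots then went through 3 min of heating across 48°C-58°C, were pooled, and were extracted in PBS with 0.5% NP-40 at 4°C, and the supernatant after 21,000xg for 90 min was quantified by TMTpro 16plex LC-MS/MS with channel sums equalised. Thermal stability relative to control samples, from duplicates, is given as log2 fold change.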
In the case of DPCD (UniProt Q9BVM2), the log2 fold change is reported as inactive: -0.026. For DUSP14 (UniProt O95147), the log2 fold change was inactive: -0.052. For DSTYK (UniProt Q6XUX3), the log2 fold change was inactive: -0.077. With ECM1 isoform 2 (UniProt Q16610) the log2 fold change was inactive: -0.152. DNAJB1 (UniProt M0R128) was tested, and the log2 fold change was inactive: -0.151. For DYNC1I1 (UniProt O14576), the log2 fold change was inactive: 0.016. For DNAJB14 (UniProt H7C494), the log2 fold change was inactive: 0.006. DPY19L2 (UniProt Q6NUT2) was tested, and the log2 fold change was inactive: 0.028. With DOCK10 (UniProt Q96BY6) the log2 fold change was inactive: 0.149. In the case of DOLPP1 (UniProt Q86YN1), the log2 fold change is reported as inactive: -0.003. For DXO (UniProt O77932), the log2 fold change was inactive: 0.029. In the case of DNM1 (UniProt Q05193), the log2 fold change is reported as inactive: 0.058. In the case of DPYSL3 isoform 2 (UniProt Q14195), the log2 fold change is reported as inactive: -0.068. For DUSP9 (UniProt Q99956), the log2 fold change was inactive: -0.147. DOP1A (UniProt Q5JWR5) was tested, and the log2 fold change was inactive: -0.051. In the case of DUSP12 (UniProt V9GYV5), the log2 fold change is reported as inactive: -0.08. With DNAL1 (UniProt Q4LDG9) the log2 fold change was inactive: 0.05.

These targets were tested with Nc1ccccc1NC(=O)c1ccc(CNC(=O)OCc2cccnc2)cc1 [entinostat] in the same assay as above.
Procedure, shortened: as §1
DNAJC15 (UniProt Q9Y5T4) was tested, and the log2 fold change was inactive: 0.02. For ECT2 isoform 3 (UniProt Q9H8V3), the log2 fold change was inactive: 0.188. DOCK11, A0A0J9YW64 was tested, and the log2 fold change was inactive: -0.053. EDRF1 (UniProt Q3B7T1) was tested, and the log2 fold change was inactive: -0.055. For DNM2 isoform 4 (UniProt P50570), the log2 fold change was inactive: 0.342. DUSP9 (UniProt Q99956) was tested, and the log2 fold change was inactive: 0.067. DUSP12 (UniProt V9GYV5) was tested, and the log2 fold change was inactive: -0.149.

The targets below were run with O=C(CCCCCCC(=O)Nc1ccccc1)NO [vorinostat] in the same assay as above.
Procedure, shortened: as §1
DPCD (UniProt Q9BVM2) was tested, and the log2 fold change was inactive: -0.144. With DUS1L (UniProt Q6P1R4) the log2 fold change was inactive: -0.007. In the case of DUSP14 (UniProt O95147), the log2 fold change is reported as inactive: 0.067. In the case of DSTYK (UniProt Q6XUX3), the log2 fold change is reported as inactive: 0.049. With DNAJB2 (UniProt P25686) the log2 fold change was inactive: -0.018. In the case of DNMT3B (UniProt Q9UBC3), the log2 fold change is reported as inactive: 0.517. EDRF1 (UniProt Q3B7T1) was tested, and the log2 fold change was inactive: 0.083. For DNM2 isoform 4 (UniProt P50570), the log2 fold change was inactive: -0.068. For DNAJB14 (UniProt H7C494), the log2 fold change was inactive: 0.074. In the case of DPY19L2 (UniProt Q6NUT2), the log2 fold change is reported as inactive: 0.004. With DNAJB9 (UniProt Q9UBS3) the log2 fold change was inactive: 0.109. In the case of DXO (UniProt O77932), the log2 fold change is reported as inactive: 0.099. With DNM1 (UniProt Q05193) the log2 fold change was inactive: 0.029. In the case of DPYSL3 isoform 2 (UniProt Q14195), the log2 fold change is reported as inactive: 0.457.
